Measured values as given in US20060174355A1.
These are yes or no findings as the source states them, for the method shown.

Biological target: GST alone
Assay: GST pull-down of in vitro translated 35S-ERRL1, SDS-PAGE and autoradiography

B1: ERRL1 (ERR ligand 1), mouse (ligand)
chain: MAGNDCGALLDEELSSFFLNYLSDTQGGDSGEEQLCADLPELDLSQLDASDFDSATCFGELQWCPETSETEPSQYSPDDSELFQIDSENEALLAALTKTLDDIPEDDVGLAAFPELDEGDTPSCTPASPAPLSAPPSPTLERLLSPASDVDELSLLQKLLLATSSPTASSDALKDGATWSQTSLSSRSQRPCVKVDGTQDKKTPTLRAQSRPCTELHKHLTSVLPCPRVKACSPTPHPSPRLLSKEEEEEVGEDCPSPWLTPASPQDSLAQDTASPDSAQPPEEDVRAMVQLIRYMHTYCLPQRKLPQRAPEPIPQACSSLSRQVQPRSRHPPKAFWTEFSILRELLAQDILCDVSKPYRLAIPVYASLTPQSRPRPPKDSQASPAHSAMAEEVRITASPKSTGPRPSLRPLRLEVKRDVNKPTRQKREEDEEEEEEEEEEEEEKEEEEEEWGRKRPGRGLPWTKLGRKMDSSVCPVRRSRRLNPELGPWLTFTDEPLGALPSMCLDTETHNLEEDLGSLTDSSQGRQLPQGSQIPALESPCESGCGDTDEDPSCPQPTSRDSSRCLMLALSQSDSLGKKSFEESLTVELCGTAGLTPPTTPPYKPMEEDPFKPDTKLSPGQDTAPSLPSPEALPLTATPGASHKLPKRHPERSELLSHLQHATTQPVSQAGQKRPFSCSFGDHDYCQVLRPEAALQRKVLRSWEPIGVHLEDLAQQGAPLPTETKAPRREANQNCDPTHKDSMQLRDHEIRASLTKHFGLLETALEGEDLASCKSPEYDTVFEDSSSSSGESSFLLEEEEEEEEGGEEDDEGEDSGVSPPCSDHCPYQSPPSKASRQLCSRSRSSSGSSSCSSWSPATRKNFRRESRGPCSDGTPSVRHARKRREKAIGEGRVVYIRNLSSDMSSRELKKRFEVFGEIVECQVLTRSKRGQKHGFITFRCSEHAALSVRNGATLRKRNEPSFHLSYGGLRHFRWPRYTDYDPTSEESLPSSGKSKYEAMDFDSLLKEAQQSLH
In the case of B1, the binding is reported as “no binding”.
